PubChem BioAssay AID652272 – Drosophila RNAi Screening Center – 2013
The screen tested about 21,000 reagents; below is an unselected part of those that have a named target and a result. Over the whole deposit, 503 (2.4%) are marked active. 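Raw plate light values, not normalised; calls rest on replicate z-scores that were not deposited; hits include reporter decreases as well as increases.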 Entries without a mark were called inactive. The record does not give: the amount of reagent, the time to read-out.

- Purpose: 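Finding fly genes that regulate Hedgehog signal transduction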 (primary screen)
- Cell system: Drosophila clone 8 (Cl8) cells
- Reagent: long dsRNA against Drosophila genes
- Detection: 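Firefly light from a Hedgehog-responsive ptc promoter reporter and Renilla reference light, both read on a plate reader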
- Direction: firefly Hh reporter signal: higher = more ptc reporter light; Renilla reference signal: higher = more Renilla control light
- Active means: 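Called a hit if the two-replicate mean z-score lies below -2 or above +3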
- Calls: active = hit: reporter lowered or raised; inactive = not a hit

predicted target,DRSC id,"firefly Hh reporter signal, replicate 1","firefly Hh reporter signal, replicate 2","firefly Hh reporter signal, replicate 3","Renilla reference signal, replicate 1","Renilla reference signal, replicate 2"
CG11382,DRSC18624,77229,1.85e5,,2356,7312
Rpn12R,DRSC09842,1.29e5,,,4885,3523
org-1,DRSC18810,99741,1.53e5,,3484,7147
CG7568,DRSC16259,1.20e5,95392,,4273,2531
Pngl,DRSC04914,1.07e5,87267,,2257,7776
MP1,DRSC12124,1.72e5,6.59e5,1.41e5,6386,40891
CG14621,DRSC20635,52857,1.55e5,,1301,6491
Spn42De,DRSC05011,73078,49546,,1186,3741
Aladin,DRSC18121,96854,74448,,2505,1872
CG15760,DRSC19725,1.11e5,2.97e5,,3360,11686
Spc25,DRSC14164,1.18e5,1.06e5,,3477,2530
CG14400,DRSC02384,1.01e5,57014,,2576,5176
CG14492,DRSC06463,52992,54547,,992,4057
Eno,DRSC00750,1.35e5,1.15e5,,3287,3175
Vha13,DRSC16895,4.83e5,97349,,32777,4185
Trs20,DRSC10489,79318,,,2212,2264
CG15456,DRSC20527,69536,3.15e5,,1907,12528
COX4L,DRSC04841,78584,56656,,1970,4909
CG31493,DRSC12583,1.16e5,98941,,4832,3449
Npc2h,DRSC14297,1.08e5,1.51e5,,3481,14371
dve,DRSC04680,1.33e5,59104,,3367,4896
CG3777,DRSC18489,6.03e5,82500,,3997,3997
Nhe1,DRSC00762,1.45e5,1.47e5,,5634,5233
CG12699,DRSC06162,1.18e5,83290,,4777,3285
trus,DRSC15772,73435,1.12e5,,2656,2805
CG5021,DRSC10469,42631,60448,,5697,5196
CG12895,DRSC06210,1.44e5,71329,,3728,6225
Hsp83,DRSC08664,2.06e5,67509,,3008,1208
Dh44,DRSC12747,2.03e5,,,4156,
Dh44,DRSC16409,78240,95264,,2624,2742
Mitf,DRSC17212,94140,2.27e5,,2553,9115
Mitf,DRSC21056,5.45e5,2.08e5,,30475,4470
RhoGAPp190,DRSC20097,93283,2.69e5,,1895,10201
RhoGAPp190,DRSC20099,99633,1.22e5,,2450,2800
CG6481,DRSC19995,64481,1.43e5,,2076,6224
CG15347,DRSC18031,1.25e5,3.30e5,,3613,12541
CG14762,DRSC05073,1.30e5,2.56e5,,17363,11092
CG14762,DRSC06496,64149,40042,,1657,3621
CG31029,DRSC15422,75357,68842,,2568,808
CG17292,DRSC02594,1.10e5,94693,,4311,3305
Cyp4ac2,DRSC03303,1.45e5,81513,,4169,7869
CG5440,DRSC00685,1.13e5,94632,,3154,2390
ca,DRSC15305,99063,91746,,1892,2555
ca,DRSC15306,1.06e5,1.19e5,,2544,8515
ca,DRSC16314,98252,1.60e5,,2418,7680
CG11404,DRSC11656,1.09e5,1.16e5,,4185,1959
dlt,DRSC08705,55977,37670,,2518,2195
Gnmt,DRSC15987,79591,1.48e5,,2839,3851
bru1,DRSC01234,3.68e5,1.20e5,,16364,4749
bru1,DRSC01236,4.38e5,89241,,20323,3922
bru1,DRSC01237,5.22e5,2.54e5,,25559,10080
bru1,DRSC01238,5.73e5,2.47e5,,27913,9741
bru1,DRSC03485,65469,43734,,3079,1778
Oscillin,DRSC03001,63926,1.00e5,,2624,4290
CG18266,DRSC02659,1.53e5,56215,,5401,2525
Pde1c,DRSC02421,1.14e5,60499,,2532,4212
Pde1c,DRSC02422,96448,44276,,2018,3188
Pde1c,DRSC02423,1.01e5,41091,,2281,3648
Pde1c,DRSC02424,1.17e5,57008,,2040,5656
Pde1c,DRSC02425,96470,72555,,2412,5623
Pde1c,DRSC02426,1.33e5,55360,,3330,4851

5 entries from above in another layout:
{"predicted target": "MP1", "DRSC id": "DRSC12124", "firefly Hh reporter signal, replicate 1": 1.72e5, "firefly Hh reporter signal, replicate 2": 6.59e5, "firefly Hh reporter signal, replicate 3": 1.41e5, "Renilla reference signal, replicate 1": 6386, "Renilla reference signal, replicate 2": 40891}
{"predicted target": "CG14621", "DRSC id": "DRSC20635", "firefly Hh reporter signal, replicate 1": 52857, "firefly Hh reporter signal, replicate 2": 1.55e5, "Renilla reference signal, replicate 1": 1301, "Renilla reference signal, replicate 2": 6491}
{"predicted target": "Spn42De", "DRSC id": "DRSC05011", "firefly Hh reporter signal, replicate 1": 73078, "firefly Hh reporter signal, replicate 2": 49546, "Renilla reference signal, replicate 1": 1186, "Renilla reference signal, replicate 2": 3741}
{"predicted target": "Aladin", "DRSC id": "DRSC18121", "firefly Hh reporter signal, replicate 1": 96854, "firefly Hh reporter signal, replicate 2": 74448, "Renilla reference signal, replicate 1": 2505, "Renilla reference signal, replicate 2": 1872}
{"predicted target": "CG15760", "DRSC id": "DRSC19725", "firefly Hh reporter signal, replicate 1": 1.11e5, "firefly Hh reporter signal, replicate 2": 2.97e5, "Renilla reference signal, replicate 1": 3360, "Renilla reference signal, replicate 2": 11686}
